Results deposited as PubChem BioAssay AID743121 (NCATS, 2013).

Assay: 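Genes whose silencing strengthens cell killing by camptothecin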 (primary screen)
System: MDA-MB-231 cells, a human breast cancer line
Reagent: single siRNA against human genes, 20 nM siRNA (0.8 pmol per well)
Timing: 120 h (drug added 48 h after transfection, read 72 h later)
Conditions: camptothecin 20 nM (about EC30) for 72 h; vehicle 0.1% DMSO in parallel plates
Read-out: 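Cell viability by ATP luminescence (CellTiter-Glo) as % of non-targeting siRNA wells, and the log2 ratio of viability without drug over viability with camptothecin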
Direction: log2 vehicle/camptothecin viability: higher = stronger sensitisation to camptothecin
Call rule: 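Active genes have an RSA gene-level p-value below 0.001, computed from the ratios of their separate siRNAs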
In all, the deposit lists about 26,000 reagents; this is a part drawn at random. 167 of them (0.63%) were called active. 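Calls are per gene from RSA p-values that are not deposited; an individual active-marked siRNA can sensitise only weakly.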 The numbers tell different reagents against one gene apart. Further read-outs or replicates are left out here. No sequences are given here.

The first 2 entries, to show the layout:
NLGN4Y (neuroligin 4 Y-linked) #1
- log2 vehicle/camptothecin viability: -0.376
- activity call: inactive

NLGN4Y (neuroligin 4 Y-linked) #2
- log2 vehicle/camptothecin viability: -0.368
- activity call: inactive

The list itself, repeating the preview:
NLGN4Y (neuroligin 4 Y-linked) #1
- log2 vehicle/camptothecin viability: -0.376
- activity call: inactive

NLGN4Y (neuroligin 4 Y-linked) #2
- log2 vehicle/camptothecin viability: -0.368
- activity call: inactive

NLGN4Y (neuroligin 4 Y-linked) #3
- log2 vehicle/camptothecin viability: -0.379
- activity call: inactive

NLGN4Y (neuroligin 4 Y-linked) #4
- log2 vehicle/camptothecin viability: -0.369
- activity call: inactive

HERC6 #1
- log2 vehicle/camptothecin viability: -0.0416
- activity call: inactive

HERC6 #2
- log2 vehicle/camptothecin viability: -0.445
- activity call: inactive

HERC6 #3
- log2 vehicle/camptothecin viability: -0.0728
- activity call: inactive

HERC6 #4
- log2 vehicle/camptothecin viability: -0.441
- activity call: inactive

VRK1 (VRK serine/threonine kinase 1) #1
- log2 vehicle/camptothecin viability: -0.102
- activity call: inactive

VRK1 (VRK serine/threonine kinase 1) #2
- log2 vehicle/camptothecin viability: 0.196
- activity call: inactive

VRK1 (VRK serine/threonine kinase 1) #3
- log2 vehicle/camptothecin viability: -0.367
- activity call: inactive

VRK1 (VRK serine/threonine kinase 1) #4
- log2 vehicle/camptothecin viability: -0.482
- activity call: inactive

SHC1 (SHC adaptor protein 1) #1
- log2 vehicle/camptothecin viability: -0.453
- activity call: inactive

SHC1 (SHC adaptor protein 1) #2
- log2 vehicle/camptothecin viability: 0.328
- activity call: inactive

SHC1 (SHC adaptor protein 1) #3
- log2 vehicle/camptothecin viability: 0.00816
- activity call: inactive

SHC1 (SHC adaptor protein 1) #4
- log2 vehicle/camptothecin viability: -0.214
- activity call: inactive
